{
  "sequences": {"note": "Sequences of proteins named here, by UniProt entry; tags and fusion partners are left off. A change or cut given only in a name is not applied to a line headed by its entry.", "UniProt P51450": "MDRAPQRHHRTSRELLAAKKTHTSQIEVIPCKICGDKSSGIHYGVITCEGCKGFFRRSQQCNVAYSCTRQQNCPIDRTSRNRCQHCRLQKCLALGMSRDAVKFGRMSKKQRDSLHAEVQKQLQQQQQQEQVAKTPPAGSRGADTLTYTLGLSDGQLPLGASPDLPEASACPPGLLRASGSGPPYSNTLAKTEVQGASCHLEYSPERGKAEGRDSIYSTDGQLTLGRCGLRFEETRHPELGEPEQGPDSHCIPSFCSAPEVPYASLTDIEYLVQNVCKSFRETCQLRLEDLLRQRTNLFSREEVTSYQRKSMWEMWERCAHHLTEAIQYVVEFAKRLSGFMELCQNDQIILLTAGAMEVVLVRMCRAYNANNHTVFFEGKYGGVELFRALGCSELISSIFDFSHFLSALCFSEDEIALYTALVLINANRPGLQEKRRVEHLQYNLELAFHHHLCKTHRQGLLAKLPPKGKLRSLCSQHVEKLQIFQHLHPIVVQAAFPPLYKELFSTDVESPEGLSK"},
  "source": "PubChem BioAssay AID2551",
  "about": "(National Center for Advancing Translational Sciences (NCATS), 2010)",
  "note": "Hit rate of the full screen: of about 310,000 compounds, about 17,000 (5.5%) were called active. The inconclusive results got no clear call from the source; some entries with a clear call stand among them for comparison. Calls follow the shape of the dose curve; as a rule, active = well fitted inhibition curve with a large enough effect; inconclusive = small, poorly fitted or top-dose-only effect, or effect the other way; inactive = no such curve, though single readings can be large or run the other way. Potencies beside an inconclusive call are fits to weak or partial responses and may not hold up. Potency is read from the fitted curve at half-maximal effect.",
  "data": [
    {"molecular_target": "Nuclear receptor ROR-gamma (Mus musculus) (UniProt P51450)", "experiment": "qHTS for inhibitors of ROR gamma transcriptional activity; also: nearly all actives have a fitted effect of over 60% in size", "conditions": "Drosophila S2 Gal4-RORgamma UAS-luciferase reporter, 20 h; series mostly up to 53.6 µM", "procedure,_shortened": "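Read-out: Photinus luciferase luminescence; inhibitors lower reporter signal. Insect Schneider cells with Gal4-ROR gamma fusion under metallothionein promoter, UAS reporter; 700 uM final copper sulfate induction, 20 hr, ambient temperature.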", "values": [
      {"smiles": "CCCCCn1c(C(Cc2ccccc2)NC(C)=O)nc2ccccc21", "note": "(stereo not drawn)", "Potency": "inconclusive: 14.1 µM [inhibitor, partial curve, poor fit]"},
      {"smiles": "COc1cccc2c1C(=O)c1c(O)c3c(c(O)c1C2=O)C[C@@](O)(C(=O)CO)C[C@@H]3OC1C[C@@H](N)[C@H](O)[C@H](C)O1", "note": "(stereo partly drawn)", "Potency": "active: 2.51 µM"},
      {"smiles": "OCCN(CCO)c1ccc(C(c2ccccc2Cl)c2ccc(N(CCO)CCO)cc2Cl)c(Cl)c1", "Potency": "active: 14.1 µM"},
      {"smiles": "CCOC(=O)c1cccc(NC(=O)c2cnc3ccccc3n2)c1", "Potency": "inconclusive: 6.31 µM [inhibitor, full curve, poor fit]"},
      {"smiles": "COCCNc1ncnc2ccc(-c3ccc(N(C)C)cc3)cc12", "Potency": "inconclusive: 17.8 µM [activator, partial curve]"},
      {"smiles": "C=CCCCCCCCCc1nc(=S)[nH][nH]1", "Potency": "active: 12.6 µM"},
      {"smiles": "CC(CN1CCN(C)CC1)OC(=O)c1ccc(Cl)cc1Cl", "note": "(stereo not drawn)", "Potency": "inconclusive: 35.5 µM [inhibitor, single point]"},
      {"smiles": "COc1ccc(OC)c(N/C(=N\\c2nc(C)cc(C)n2)NC(=O)c2ccco2)c1", "Potency": "inactive"},
      {"smiles": "Cn1c(=O)cc(SCC(=O)N2CCN(c3ccccn3)CC2)c2ccccc21", "Potency": "inactive"},
      {"smiles": "CCN1CCN(Cc2ccc(NC(=O)c3ccc(C)c(NC(=O)C[C@@H]4NC(=O)[C@H](Cc5ccccc5)NC4=O)c3)cc2C(F)(F)F)CC1", "Potency": "inactive"},
      {"smiles": "N#C/C(=C\\c1ccc(F)c(F)c1)C(=O)NC1CCCCC1", "Potency": "inconclusive: 11.2 µM [inhibitor, partial curve, poor fit]"},
      {"smiles": "Cc1ccc([N+](=O)[O-])cc1/C=N/Nc1nnnn1-c1ccccc1", "Potency": "inconclusive: 0.282 µM [inhibitor, full curve, poor fit]"},
      {"smiles": "COc1ccccc1NC(=O)CSc1nc2ccccc2n1C(C)=O", "Potency": "inconclusive: 28.2 µM [activator, single point]"},
      {"smiles": "O=C(O)CSc1ncnc2c1sc1nc(-c3ccccc3)c3c(c12)CCC3", "Potency": "inactive"},
      {"smiles": "COc1ccc2c(COC(=O)CC3Sc4ccccc4NC3=O)cc(=O)oc2c1", "note": "(stereo not drawn)", "Potency": "inconclusive: 17.8 µM [activator, partial curve]"},
      {"smiles": "COc1cc(C2N(c3ccccc3)CCN2c2ccccc2)cc(OC)c1OC", "Potency": "inactive"},
      {"smiles": "CCOC(=O)c1ccc2c(c1)N(CC(=O)N1CCCCC1)C(=O)C(C)(C)O2", "Potency": "inconclusive: 2.82 µM [activator, full curve, poor fit]"},
      {"smiles": "Cc1cccc(NS(=O)(=O)c2cc3c(cc2C)n(C)c(=O)c(=O)n3C)c1", "Potency": "inconclusive: 11.2 µM [activator, partial curve]"},
      {"smiles": "CC(C)c1nnc(NC(=O)c2ccc(S(=O)(=O)N3CCOCC3)cc2)s1", "Potency": "inactive"},
      {"smiles": "CC(C)(C)/C(COc1ccccc1[N+](=O)[O-])=N/O", "Potency": "inconclusive: 17.8 µM [activator, single point]"},
      {"smiles": "N#CCc1cc2ccc3cccc4ccc(c1)c2c34", "Potency": "inactive"},
      {"smiles": "CN(C)CCCNc1oc(-c2ccccc2Cl)nc1S(=O)(=O)c1ccc(F)cc1", "Potency": "inconclusive: 15.8 µM [inhibitor, single point]"},
      {"smiles": "CCn1c(NCc2cc(Cl)ccc2O)nc2ccccc21", "Potency": "inconclusive: 11.2 µM [activator, partial curve]"},
      {"smiles": "Fc1ccccc1-c1n[nH]c(=S)n1CC1CCCO1", "note": "(stereo not drawn)", "Potency": "active: 11.2 µM"},
      {"smiles": "OCCN1CC(O)C(O)C(O)C1CO", "note": "(stereo not drawn)", "Potency": "inactive"},
      {"smiles": "CCCCS(=O)(=O)NC1=NCN(Cc2ccco2)CN1", "Potency": "inactive"},
      {"smiles": "CCOC(=O)C1C(=O)C=C(/C=C/c2ccc(N(C)C)cc2)CC1c1ccccc1", "note": "(stereo not drawn)", "Potency": "inconclusive: 7.08 µM [activator, partial curve, poor fit]"},
      {"smiles": "NC(=O)NC(=O)CSc1ccccc1", "Potency": "inactive"},
      {"smiles": "Cc1c(C(=O)N2CCCCC2C)sc2nc3n(c(=O)c12)CCC3", "note": "(stereo not drawn)", "Potency": "inactive"},
      {"smiles": "O=c1cc(C(F)(F)F)[nH]c2ccc(C(F)(F)F)cc12", "Potency": "inactive"},
      {"smiles": "Cc1ccc(C=Nc2ccccc2C(N)=O)o1", "Potency": "inconclusive: 35.5 µM [inhibitor, single point]"},
      {"smiles": "CC1CN(S(=O)(=O)c2ccc(C(=O)Nc3nnc(-c4ccc5c(c4)CCCC5)o3)cc2)CC(C)O1", "note": "(stereo not drawn)", "Potency": "active: 0.112 µM"},
      {"smiles": "O=C(/C=C/c1cccc([N+](=O)[O-])c1)NC(=S)Nc1ccccc1C(=O)O", "Potency": "inconclusive: 35.5 µM [inhibitor, single point]"},
      {"smiles": "CC(C)(C)c1cc(CCC(=O)NCCc2ccccn2)cc(C(C)(C)C)c1O", "Potency": "inactive"},
      {"smiles": "CC(C)(C)n1nnnc1C(c1ccccn1)N(Cc1ccccc1)Cc1ccc(Cl)cc1", "note": "(stereo not drawn)", "Potency": "inconclusive: 35.5 µM [inhibitor, single point]"},
      {"smiles": "COc1cc(/C=N/NC(=O)CNC(=O)c2ccco2)ccc1O", "Potency": "inactive"},
      {"smiles": "COCCn1c(SCC(=O)Nc2ccccc2OC)nc2ccccc2c1=O", "Potency": "inconclusive: 11.2 µM [activator, single point]"},
      {"smiles": "Cc1ccc(CCNS(=O)(=O)c2cc3c(cc2C)n(C)c(=O)c(=O)n3C)cc1", "Potency": "inconclusive: 35.5 µM [activator, single point]"},
      {"smiles": "O=C(COc1ccccc1)Nc1ccccc1N1CCN(c2ccc(F)cc2)CC1", "Potency": "inconclusive: 7.08 µM [activator, partial curve]"},
      {"smiles": "O=C(NC1=NCCS1)c1sc2cc(F)ccc2c1Cl", "Potency": "inconclusive: 12.6 µM [inhibitor, single point]"},
      {"smiles": "CN(C)c1ccc(/C=C/c2nc3ccccc3s2)cc1", "Potency": "active: 0.316 µM"},
      {"smiles": "COc1cccc(OC)c1OCCN1CCN(C(c2ccccc2)c2ccccc2)CC1", "Potency": "inconclusive: 14.1 µM [activator, single point]"},
      {"smiles": "O=c1[nH]c2cc3c(cc2cc1CN(Cc1cccnc1)C(=S)NCc1ccco1)OCCO3", "Potency": "inconclusive: 12.6 µM [activator, partial curve]"},
      {"smiles": "O=C(O)c1ccc(N/N=C/c2ccnc3ccccc23)cc1", "Potency": "inconclusive: 10 µM [inhibitor, partial curve]"},
      {"smiles": "OC(COc1ccc2cc(Br)ccc2c1)CN1CCOCC1", "note": "(stereo not drawn)", "Potency": "inconclusive: 17.8 µM [activator, single point]"},
      {"smiles": "COc1cc(OC)cc(C(=O)NCc2ccc3c(c2)OCO3)c1", "Potency": "inactive"},
      {"smiles": "O=C(CN(CCO)c1ccccc1)Nc1ccc(Cl)c(S(=O)(=O)N2CCOCC2)c1", "Potency": "inconclusive: 35.5 µM [activator, single point]"},
      {"smiles": "CC(C)CC(c1nnnn1CC1CCCO1)N1CCN(c2cccc(Cl)c2)CC1", "note": "(stereo not drawn)", "Potency": "inconclusive: 0.178 µM [inhibitor, full curve, poor fit]"},
      {"smiles": "O=C1c2ccccc2C(=O)N1CC(O)COc1ccc(Br)cc1", "note": "(stereo not drawn)", "Potency": "inconclusive: 15.8 µM [activator, single point]"},
      {"smiles": "NC(=O)CSc1nc2cc([N+](=O)[O-])ccc2n1-c1cccc(C(F)(F)F)c1", "Potency": "inconclusive: 35.5 µM [activator, single point]"},
      {"smiles": "Cc1cc(C(C)(C)C)oc1C(=O)NCCCNC(=O)c1oc(C(C)(C)C)cc1C", "Potency": "inconclusive: 1 µM [activator, full curve]"},
      {"smiles": "NC(=O)c1cccc2c3c([nH]c12)CCCC3", "Potency": "inconclusive: 11.2 µM [activator, partial curve]"},
      {"smiles": "Cc1ccc(OCC(=O)Nc2ccncc2)cc1", "Potency": "inconclusive: 11.2 µM [activator, partial curve]"},
      {"smiles": "CCOC(=O)C1=C(C)N(C)C(=S)NC1c1c(OCC)ccc2ccccc12", "note": "(stereo not drawn)", "Potency": "active: 2.82 µM"},
      {"smiles": "O=C(N/N=C/c1cccs1)c1cccc(NC(=O)c2ccc(Cl)cc2)c1", "Potency": "active: 10 µM"},
      {"smiles": "CCc1cccc(NC(=O)Cn2cc(C=O)c3ccccc32)c1", "Potency": "inconclusive: 14.1 µM [activator, single point]"},
      {"smiles": "CCOc1ccc2nc(SCC(=O)N3CCN(C(=O)c4ccco4)CC3)sc2c1", "Potency": "inactive"},
      {"smiles": "O=C(Cn1cc(C(F)(F)F)cc(Cl)c1=O)Nc1cc(S(=O)(=O)N2CCOCC2)ccc1Cl", "Potency": "inconclusive: 6.31 µM [activator, single point]"},
      {"smiles": "CCOC(=O)Cn1c(=O)n(Cc2ccccc2)c(=O)c2cccnc21", "Potency": "inactive"},
      {"smiles": "COc1ccc(-n2c(=O)c(-c3ccc(Cl)cc3)nc3cnc(N4CCOCC4)nc32)cc1", "Potency": "inactive"},
      {"smiles": "O=C(N/C(=C\\c1ccc(F)cc1)C(=O)N1CCOCC1)c1ccccc1", "Potency": "inconclusive: 12.6 µM [activator, partial curve]"},
      {"smiles": "Cc1ccccc1NS(=O)(=O)c1cc(C(=O)Nc2ccccc2-c2ccccc2)ccc1Cl", "Potency": "inconclusive: 3.16 µM [inhibitor, partial curve]"},
      {"smiles": "C=C(C)C1Cc2c(C)nn(-c3ccccc3)c2C1", "note": "(stereo not drawn)", "Potency": "inactive"},
      {"smiles": "CCN(CC)CCNCC1C(=O)O[C@@H]2C[C@@]3(C)CCC[C@H](C)C3=C[C@H]12", "note": "(stereo partly drawn)", "Potency": "inactive"},
      {"smiles": "COc1cc(/C=N/NC(=O)c2ccc3c(c2)OCCO3)c(Br)c(Br)c1O", "Potency": "inactive"},
      {"smiles": "Cc1ccc(-c2nnc(Nc3ccc4c(c3)OCO4)c3ccccc23)cc1S(=O)(=O)NC(C)C", "Potency": "inconclusive: 11.2 µM [activator, partial curve]"},
      {"smiles": "Cc1nnc(SCC(=O)N2c3ccccc3Sc3ccccc32)n1N", "Potency": "inconclusive: 35.5 µM [inhibitor, single point]"},
      {"smiles": "Cc1oc(-c2ccc(Cl)cc2)nc1CS(=O)CC(=O)NCCCN1CC(C)CC(C)C1", "note": "(stereo not drawn)", "Potency": "inactive"},
      {"smiles": "O=C(O)CCc1c(C(=O)O)[nH]c2cc(Cl)cc(Cl)c12", "Potency": "inactive"},
      {"smiles": "COc1cc2c(cc1OC)CN(CC(=O)Nc1cccc(C(F)(F)F)c1)CC2", "Potency": "inactive"},
      {"smiles": "Cn1c(OCc2cccnc2)nc2c1c(=O)n(Cc1ccccc1)c(=O)n2C", "Potency": "active: 11.2 µM"},
      {"smiles": "CC(C)n1c(SCC(=O)Nc2ccccc2N2CCOCC2)nc2c1c(=O)n(C)c(=O)n2C", "Potency": "inactive"},
      {"smiles": "C/C(=N\\NC(=O)c1cc(-c2ccc(C)s2)nc2ccccc12)c1cccnc1", "Potency": "inconclusive: 22.4 µM [inhibitor, single point]"}
    ]}
  ]
}
